The target of this test is Flag-tagged prostanoid DP1 receptor (D-type prostanoid receptor) (UniProt Q13258). The test is described as follows: co-IP; HEK293 cells transiently co-expressing Flag-DP1 and ANKRD13C-myc, treated with vehicle (ethanol) or 1 µM MK-0524 for 24 h; Flag-DP1 immunoprecipitated from lysate (150 mM NaCl, 50 mM Tris pH 8.0, 0.5% deoxycholate, 0.1% SDS, 1% IGEPAL) with protein G-agarose; blots with anti-Flag and ….

Protein sequences, listed by entry. Tags and fused reporters are not part of them.
UniProt Q13258: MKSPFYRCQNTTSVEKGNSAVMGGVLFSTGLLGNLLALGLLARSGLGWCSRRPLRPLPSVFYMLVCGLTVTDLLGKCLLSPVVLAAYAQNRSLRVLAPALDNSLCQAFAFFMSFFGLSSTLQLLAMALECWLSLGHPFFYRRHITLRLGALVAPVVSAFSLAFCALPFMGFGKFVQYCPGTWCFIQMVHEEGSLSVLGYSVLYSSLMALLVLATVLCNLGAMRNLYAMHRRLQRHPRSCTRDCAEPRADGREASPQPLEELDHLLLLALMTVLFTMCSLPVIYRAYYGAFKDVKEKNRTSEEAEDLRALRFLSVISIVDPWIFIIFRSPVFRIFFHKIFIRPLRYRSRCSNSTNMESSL

These are yes or no findings as the source states them, for the method shown. Binding seen in cells or lysates may run through a third protein. Some binding calls cover weakened binding; strength is not graded here. Sequences can lack the tags named with a protein.

B1: ANKRD13C-myc (protein, UniProt Q8N6S4 1-541)
chain: MTGEKIRSLRRDHKPSKEEGDLLEPGDEEAAAALGGTFTRSRIGKGGKACHKIFSNHHHRLQLKAAPASSNPPGAPALPLHNSSVTANSQSPALLAGTNPVAVVADGGSCPAHYPVHECVFKGDVRRLSSLIRTHNIGQKDNHGNTPLHLAVMLGNKECAHLLLAHNAPVKVKNAQGWSPLAEAISYGDRQMITALLRKLKQQSRESVEEKRPRLLKALKELGDFYLELHWDFQSWVPLLSRILPSDACKIYKQGINIRLDTTLIDFTDMKCQRGDLSFIFNGDAAPSESFVVLDNEQKVYQRIHHEESEMETEEEVDILMSSDIYSATLSTKSISFTRAQTGWLFREDKTERVGNFLADFYLVNGLVLESRKRREHLSEEDILRNKAIMESLSKGGNIMEQNFEPIRRQSLTPPPQNTITWEEYISAENGKAPHLGRELVCKESKKTFKATIAMSQEFPLGIELLLNVLEVVAPFKHFNKLREFVQMKLPPGFPVKLDIPVFPTITATVTFQEFRYDEFDGSIFTIPDDYKEDPSRFPDL
In the case of B1, the binding entry was “binds”.

The record behind these values is PMC3677937.
